Source: US10829799 (UNIVERSITY COURT OF THE UNIVERSITY OF DUNDEE, dated 2020)

T1: endogenous UBA1 in HEK293 protein extract (human, UniProt P22314 2-1058, limits assumed)
T1 construct: In a cell lysate, identified by anti-UBA1 blot and molecular weight
T1 sequence (looked up): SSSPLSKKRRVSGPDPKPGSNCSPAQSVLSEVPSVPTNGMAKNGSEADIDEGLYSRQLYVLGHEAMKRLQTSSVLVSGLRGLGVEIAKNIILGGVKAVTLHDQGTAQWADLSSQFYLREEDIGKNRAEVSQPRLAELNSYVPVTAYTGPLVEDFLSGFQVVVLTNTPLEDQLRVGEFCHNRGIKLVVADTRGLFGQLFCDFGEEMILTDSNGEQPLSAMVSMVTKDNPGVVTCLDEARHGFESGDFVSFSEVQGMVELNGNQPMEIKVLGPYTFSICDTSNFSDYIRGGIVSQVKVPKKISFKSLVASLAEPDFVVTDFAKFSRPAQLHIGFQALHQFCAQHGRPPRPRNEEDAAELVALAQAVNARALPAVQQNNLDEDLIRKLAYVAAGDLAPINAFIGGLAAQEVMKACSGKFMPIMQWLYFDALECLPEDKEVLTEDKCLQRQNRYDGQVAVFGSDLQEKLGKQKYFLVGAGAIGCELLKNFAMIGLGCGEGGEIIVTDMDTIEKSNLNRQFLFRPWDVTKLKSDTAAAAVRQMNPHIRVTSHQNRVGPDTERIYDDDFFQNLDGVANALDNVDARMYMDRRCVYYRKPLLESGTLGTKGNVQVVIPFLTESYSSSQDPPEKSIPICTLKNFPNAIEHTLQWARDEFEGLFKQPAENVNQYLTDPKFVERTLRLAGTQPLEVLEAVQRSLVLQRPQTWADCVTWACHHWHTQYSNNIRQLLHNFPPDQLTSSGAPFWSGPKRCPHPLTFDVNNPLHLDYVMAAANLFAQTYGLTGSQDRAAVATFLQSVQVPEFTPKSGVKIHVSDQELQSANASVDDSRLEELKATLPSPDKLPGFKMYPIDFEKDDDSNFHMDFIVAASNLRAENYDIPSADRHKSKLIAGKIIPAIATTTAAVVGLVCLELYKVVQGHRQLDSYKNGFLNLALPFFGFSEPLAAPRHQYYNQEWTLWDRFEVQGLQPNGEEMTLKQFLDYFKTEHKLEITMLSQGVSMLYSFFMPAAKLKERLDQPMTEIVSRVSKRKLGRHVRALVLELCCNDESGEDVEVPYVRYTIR

B1: UBE2D1 thioacrylonitrile probe (enzyme)
chain: MGSSHHHHHHSSGLVPRGSHMASMTGGQQMGRGSALKRIQKELSDLQRDPPAHCSAGPVGDDLFHWQATIMGPPDSAYQGGVFFLTVHFPTDYPFKPPKIAFTTKIYHPNINSNGSICLDILRSQWSPALTVSKVLLSICSLLCDPNPDDPLVPDIAQIYKSDKEKYNRHAREWTQKYAM
modifications: all 4 cysteines labelled with TDMA 1 (thioacrylonitrile)
notes: also called UBE2D1-=CN
B2: UBE2D1 thiomethyl acrylate probe (enzyme)
chain: B1 chain
modifications: all 4 cysteines labelled with TDMA 2 (thiomethyl acrylate)
notes: also called UBE2D1-VME
B3: UBE2D3 thioacrylonitrile probe (enzyme)
chain: MGSSHHHHHHSSGLEVLFQGPGSALKRINKELSDLARDPPAQCSAGPVGDDMFHWQATIMGPNDSPYQGGVFFLTIHFPTDYPFKPPKVAFTTRIYHPNINSNGSICLDILRSQWSPALTISKVLLSICSLLCDPNPDDPLVPEIARIYKTDRDKYNRISREWTQKYAM
modifications: all 4 cysteines labelled with TDMA 1 (thioacrylonitrile)
notes: also called UBE2D3-=CN
B4: UBE2D3 thiomethyl acrylate probe (enzyme)
chain: B3 chain
modifications: all 4 cysteines labelled with TDMA 2 (thiomethyl acrylate)
notes: also called UBE2D3-VME
B5: UBE2D1C86 thioacrylonitrile probe (enzyme)
chain: MSYYHHHHHHDYDIPTTENLYFQGAGSGSMALKRIQKELSDLQRDPPAHSSAGPVGDDLFHWQATIMGPPDSAYQGGVFFLTVHFPTDYPFKPPKIAFTTKIYHPNINSNGSICLDILRSQWSPALTVSKVLLSISSLLSDPNPDDPLVPDIAQIYKSDKEKYNRHAREWTQKYAM
modifications: catalytic cysteine labelled with TDMA 1 (thioacrylonitrile)
notes: Non-catalytic cysteines mutated to serine; the entry already holds these changes; also called UBE2D1 C86-=CN
B6: UBE2D1C86 thiomethyl acrylate probe (enzyme)
chain: B5 chain
modifications: catalytic cysteine labelled with TDMA 2 (thiomethyl acrylate)
notes: also called UBE2D1 C86-VME

What follows are binders tested against T1, endogenous UBA1 in HEK293 protein … (assay: probe (5 uM) in HEK293 extract (125 ug), 3 h at 30 C, western blot).
Procedure: Labelling was quenched by the addition of 1 part 4×LDS loading buffer (Life Technologies) supplemented with 715 mM 2-mercaptoethanol (BME) to 3 parts probe-treated protein extract. Proteins were resolved by SDS-PAGE (10%) and transferred to nitrocellulose membrane (20 V for 40-60 min) by semi-dry transfer using a Novex Semi-dry device (Life Technologies). Membranes were blocked by incubation with 5% milk powder in phosphate buffered saline+0.1% Tween 20 (PBST) for 1 h. His-tagged species were probed with 1:10000 anti-His primary antibody (Clontech) in PBST+5% milk powder for 30 min at room temperature. Detection was carried out by incubation with 1:2500 anti-mouse-HRP conjugated antibody (Cell Signalling Technologies) in PBST+5% milk powder for 1 h at room temperature. ECL Prime substrate (GE Life Sciences) was used for visualization in accordance with the manufacturers protocol. Probing for UBA1 was carried out with anti-UBA1 primary antibody (Sigma E3152) and incubated for 1 h at room temperature. Detection was carried out by incubation with 1:15000 anti-mouse-HRP conjugated antibody (Cell Signalling Technologies) in PBST+5% milk powder for 1 h at room temperature.
We next tested whether E2 probes could label endogenous proteins in a complex proteome. We prepared additional thioacrylonitrile and thiomethyl acrylate probes built on UBE2D1, UBE2D2, UBE2D3 and UBE2H. […] UBE2H was chosen as it only has a single catalytic cysteine. Human embryonic kidney cell (HEK293) extracts (125 μg) were incubated with empirically determined probe concentrations (5-25 μM).

| Binder | binding result |
| --- | --- |
| B1 | binds |
| B2 | binds |
| B3 | binds |
| B4 | binds |
| B5 | binds |
| B6 | binds |
